Assay results: PubChem BioAssay AID310 (DTP/NCI, 2004)
The list shows only some results of the screen, not a fair sample: it gathers some chemical classes. Not every dose and run of a compound is shown. T/C: endpoint of the treated group in % of that of the vehicle group. Some entries show no survivor count and are marked so; the dose need not have been tolerated. Schedule codes are those of the source, taken here to give the interval after Q, in days (D) or hours (H), and the number of doses after X. Some entries hold several experiments; the results are listed from low to high.

Test system: C3AKF1 mice, osteogenic sarcoma HE10734 s.c., tumor weight T/C
Test: NCI In Vivo Anticancer Drug Screen. Data for tumor model Osteogenic Sarcoma HE 10734 (subcutaneous) in C3AKF1 (CHKRF1) mice
Conditions: T/C endpoint: mean tumor weight, schedule: Q01DX010 (ip), evaluation day not shown, higher T/C = larger tumour
Description: The antitumor activity of compounds was measured in mice bearing transplantable tumors. Survival or tumor size were measured and the results are expressed as the measurement made in the treated group (T) divided by the measurement made in the vehicle treated control group (C). The tumor model used in this assay is Osteogenic Sarcoma HE 10734 (subcutaneous) in C3AKF1 (CHKRF1) mice

## COCc1c(CN(CCCl)CCCl)cnc(C)c1O
dose: 1.25 mg/kg/injection, vehicle: carboxymethylcellulose (CMC)
  T/C: 106 % of control [survivor count not shown]
dose: 2.5 mg/kg/injection, vehicle: carboxymethylcellulose (CMC)
  T/C: 67 % of control [survivor count not shown]
dose: 5.0 mg/kg/injection, vehicle: carboxymethylcellulose (CMC)
  T/C: 64 % of control [survivor count not shown]
dose: 10.0 mg/kg/injection, vehicle: carboxymethylcellulose (CMC)
  T/C: 74 [survivor count not shown] and 116 % of control [survivor count not shown]
dose: 15.0 mg/kg/injection, vehicle: carboxymethylcellulose (CMC)
  T/C: 30 % of control [survivor count not shown]

## ClCCCCC(CCl)NCCCl (stereo not drawn)
dose: 25.0 mg/kg/injection, vehicle: saline
  T/C: 46 % of control [survivor count not shown]

## Cc1cc2nc(CN(CCCl)CCCl)[nH]c2cc1C
dose: 6.0 mg/kg/injection, vehicle: saline
  T/C: 66 % of control [survivor count not shown]
dose: 12.0 mg/kg/injection, vehicle: saline
  T/C: 19 % of control [survivor count not shown]
